Experimental data published in patent US20090263410A1, “USE OF TGF-B1 INHIBITOR PEPTIDES IN THE PREPARATION OF AN IMMUNE RESPONSE MODULATING AGENT” (Proyecto De Biomedicina Cima, S.L., priority 2005, published 2009).
Entries after “also recorded” stand apart in the source; their conditions may differ. At least one peptide structure holds a part that was inferred or is arguable (an end, a ring closure or a residue). Where no end group is shown, it is not given here.

Experiments:
NK cells [1] = assay: NK cell proliferation (cell count, tritium labelled thymidine incorporation); assay type: cell-based, RAG−/− mice; details: p17 150 μg/ml; IL-2; cell count or tritium labelled thymidine incorporation
NK cells [2] = assay: NK cell activation markers by flow cytometry; assay type: cell-based, RAG−/− mice; details: NK cells activated with IL-2, cultured with/without p17
dendritic cells = assay: Mixed leukocyte response (MLR) with bone marrow dendritic cells; assay type: cell-based, C57 mouse dendritic cells, BALB/c non-adherent spleen cells; details: p17 150 μg/ml

Which results are given for KRIWFIPRSSWYERA [p17]?
proliferation of NK cells (NK cells [1]): clear anti-proliferative effect; also recorded: inhibits their proliferation; CD25 level (mean fluorescence intensity) (NK cells [2]): reduces the expression levels; CD69 level (mean fluorescence intensity) (NK cells [2]): reduces the expression levels; lymphocyte proliferation in MLR (dendritic cells; dendritic cells non-stimulated or stimulated with LPS or pIC): increasing lymphocyte proliferation; also recorded: increases the lymphocyte proliferation; lymphocyte proliferation / antigen presentation in MLR (dendritic cells; dendritic cells stimulated with 1668 or 3T-CD40L): do not permit peptide p17 to mediate a difference
